Reference: the supplement of paper PMC4683952
Some of the results follow. Cut-off read from the data, not from the text of the source: active = 2 or more and inactive = the rest. Single values are uncertain here, since repeats match poorly.

System: Lgr5 (MarsCy1-Lgr5-EGFP, U2OS)
Experiment: cell-surface Lgr5 expression (SCi1 fluorescence, background-subtracted) relative to WT DMSO (fold of DMSO control); higher = more Lgr5 at the plasma membrane
Conditions: U2OS MarsCy1-Lgr5-EGFP stable; treatment time: overnight; library: ActiProbe-5K (TimTec); 25 µM

cell-surface Lgr5 expression, active:
O=[N+]([O-])c1ccc(SC2N=C3CC=CC=C3S2)c([N+](=O)[O-])c1 (configuration not stated) 2.25

cell-surface Lgr5 expression, inactive:
Cn1ncc(N)c1C(N)=O 1.24, Cc1cc([N+](=O)[O-])nn1CC(C)c1nc(-c2cccs2)no1 (configuration not stated) 1.15, Brc1ccc2c(c1)[C@@H]1C=CC[C@@H]1[C@H](c1ccncc1)N2 0.655, N#Cc1c(NC(=O)C2CC2)sc2c1CCCCC2 1.19, CC1=NC(=O)C2C(=O)O/C(=C\c3ccc4c(c3)OCO4)C2=C1 (configuration not stated) 1.13, O=S1(=O)CC(O)C(NCc2ccco2)C1 (configuration not stated) 1.12, O/N=C\c1sccc1Br 1.21, O=[N+]([O-])c1ccc(N2CCCC2)cc1NC1CC1 0.824, Cn1c(=O)c2c(ncn2CC(=O)N/N=C/C=C/c2ccco2)n(C)c1=O 1.1, S=c1n(Cc2ccccc2)ccn1CN1CCC2(CC1)OCCO2 1.1, CCN1C(=O)/C(=C2\SC(=S)N(CC3CCCO3)C2=O)c2ccccc21 (configuration not stated) 1.27, Nc1ccc(C2OCOCC2O)cc1 (configuration not stated) 1.02, Nc1c(C(=O)C23CC4CC(CC(C4)C2)C3)sc2sc3c(O)cc(=O)[nH]c3c12 0.867, O=C(CSc1nc2[nH]c(=O)cc(O)c2s1)NC1CCCC1 1.15, On1c(-c2ccccc2Cl)nc2c1CCc1nonc1-2 1.3, C/C(=N\N1CCN(C2c3ccccc3-c3ccccc32)CC1)c1ccco1 1.04, Cl.N[C@H]1C[C@@H](CO)[C@H](O)[C@@H]1O 1.21, Brc1ccc(-c2cnn3cnnc3n2)cc1 0.991, CN(C)S(=O)(=O)N(C)c1ccccc1 1.05, CCC1([N+](=O)[O-])COCOC1 0.868, O=c1[nH]cnc2c1nc(Br)n2C1OC(CO)C(O)C1O (configuration not stated) 1.46, Oc1ccc2ccccc2c1Sc1c(O)ccc2ccccc12 0.879, COc1ccc(S(=O)(=O)NCC2CCCO2)c(Cl)c1Cl (configuration not stated) 1.27, CC1(C)CC2(CC(C)(C)N1)OC(=O)N(CCCO)C2(C)O (configuration not stated) 1.08, CSCCC1NC(=S)N(C)C1=O (configuration not stated) 1.11, Fc1cccc(/C=N\n2c(S)nnc2-c2ccccc2)c1 1.01, Clc1ccc(-n2cnnn2)cc1 1.09, O=C(NCCNC(=O)c1ccn[nH]1)c1ccn[nH]1 1.1, Cn1c(=S)sc2ccccc21 1.31, NC1(CN2CCCCC2)CCCCC1 1.24, C[N+]1(CCOCc2ccccc2)CC[N+](C)(CCOCc2ccccc2)CC1 (configuration not stated) 1.18, Cc1cc(Cl)nc2ccc(F)cc12 1.15, COc1ccc(S(=O)(=O)Nc2ncccn2)cc1 1.15, Sc1nnc(-c2cc(-c3ccccc3)n[nH]2)n1/N=C/C=C\c1ccco1 1.1, CCOCn1cc(NC(=S)NCc2ccco2)cn1 1.21, Fc1ccc(CSc2nc3ccccc3o2)c2ccccc12 1.49, NC1=Nc2ccc(Cl)cc2SC1 0.811, Fc1ccc(/C=C\c2nnc(-c3ccc(Cl)cc3Cl)o2)cc1 1.03, Cn1cccc1/C=N\Nc1ccc(F)cc1 1.11, N#C/C(=C\c1ccncc1)C(N)=S 1.18, COC1CCCCC1Nc1ccc2c(c1)CCC2 (configuration not stated) 1.3, C/C(=N\N1C(=O)c2ccccc2C1=O)C1C(=O)c2ccccc2C1=O 1.07, Nc1nc(-c2sc3nc4c(cc3c2N)CCCCC4)nc(N2CCOCC2)n1 1.24, c1csc(CN2CCN(Cc3cccs3)C2c2cccs2)c1 1.3, Cc1nn(C)cc1-c1nnc(CCn2cc([N+](=O)[O-])cn2)o1 1.15, O=S(=O)(c1ccc2oc3ccccc3c2c1)N1CCOCC1 1.41, COc1ccc(OC)c(C2Nc3cccc4cccc(c34)N2)c1 0.745, C1(=C2/SC=CS2)/SC=CS1 0.992, Oc1cc(O)c2sc3nc(-c4ccccc4)cc(-c4ccccc4)c3c2n1 1.31, Cc1ccc(C2CC(C(F)(F)F)n3nccc3N2)s1 (configuration not stated) 1.12, CC(C)(C)S(=O)(=O)c1ccc(N)nc1 1.31, COc1ccc(NS(=O)(=O)c2ccc(N)cc2)nn1 1.34, O=C(Nc1cnccn1)c1c(O)c2c(n(C3CC3)c1=O)CCCC2 1.35, Cc1cc(C)c(O)c(C(CC(C)C)c2cc(C)cc(C)c2O)c1 1.33, O=C(O)Cn1cnc2sc3c(c2c1=O)CCC3 1.22, OC(CSCc1cccc(C(F)(F)F)c1)C(O)CSCc1cccc(C(F)(F)F)c1 (configuration not stated) 0.976, O=C1CCCc2oc3ccc(O)cc3c21 1.37, COC(=O)C1C(=O)Oc2ccc3ccccc3c2C1C1CCOC1=O (configuration not stated) 1.26, c1ccc2c(c1)-c1ccccc1C2Sc1nc2ccccc2s1 1.36, O=C(Nc1nnc(C2CCCCC2)s1)C1CC1 1.43, COCc1n[nH]c2c1C(c1cccs1)C(C#N)=C(N)O2 (configuration not stated) 1.32, N#CC1=C(N)SC(N)=C(C#N)C1c1ccco1 1.17, CC(=O)Nc1nnc(CC(C)(C)C)s1 1.32, C=CCN(CC=C)C(=O)c1cccs1 1.09, O=c1nc2sccn2c2ccc([N+](=O)[O-])cc12 0.926, O=C(NCCN1CCOCC1)N1CCOCC1 1.06, Oc1nc2cc3ccccc3cc2nc1C(F)(F)F 1.02, Brc1ccc2c(c1)-c1cc(Br)ccc1C2 1.51, O=c1[nH]c2ccc(/N=C\c3ccc4c(c3)OCO4)cc2[nH]1 1.03, CC(=O)OCC1OC(n2ccc(O)nc2=S)C(OC(C)=O)C1OC(C)=O (configuration not stated) 1.23, N#Cc1ccc2c(c1)COC2c1ccc(F)cc1 (configuration not stated) 1.27, O=c1[nH]c2cncc(Br)c2[nH]1 1.08, O=C(NCCCN1CCOCC1)C1CC2CCC1C2 (configuration not stated) 1.38, Nc1nnc(SCc2csc(C=O)c2)s1 1.08, O=[N+]([O-])c1ccccc1-n1ccnc1 1.41, O=C1C(Nc2ccc(Br)cn2)=C([n+]2ccccc2)C(=O)N1c1ccccc1.[Cl-] 1.29, O=C(O)C1CCCN1S(=O)(=O)c1cccs1 (configuration not stated) 1.44, COc1ccc(C2=Nn3c(nnc3-c3ccccc3OC)SC2)cc1OC 1.26, Cn1cc(S(=O)(=O)N2CCN(C(=O)C3CCN(S(C)(=O)=O)CC3)CC2)cn1 1.21, O=c1[nH]cc(CO)c(=O)[nH]1 1.33, CC1(C)OCC(C23OC(C)(C)C2(C2COC(C)(C)O2)O3)O1 (configuration not stated) 1.16, Cc1sc2ncn(C(C)C(=O)OC3CCCCC3)c(=O)c2c1C (configuration not stated) 1.21, CCCCCCCC1CC(C(C)(C)C)CC/C1=N\NC(N)=O (configuration not stated) 1.24, NC1=Nc2nc3ccccc3n2C(c2c[nH]c3ccc(F)cc23)N1 (configuration not stated) 1.34, O=c1cnn(C2OC(CO)C(O)C2O)c(=S)[nH]1 (configuration not stated) 1.17, CCCCCCCSc1nc2c(c(=O)[nH]c(=O)n2C)n1CCCCCCC 1.15, CC1=C(C(=O)OC(C)C)C(C2CC=CCC2)NC(=O)N1 (configuration not stated) 1.2, CC(C)(C)c1cc(S)cc(C(C)(C)C)c1O 1.24, S=C(c1ccco1)N1CCOCC1 1.08, c1ccc2c(c1)OC1c3ccccc3OC3c4ccccc4OC2N31 (configuration not stated) 0.992, O=c1c2c3c(sc2ncn1Cc1ccon1)CCC3 1.11, CCCc1[nH]nc2c1C(c1ccc(Br)s1)C(C#N)=C(N)O2 (configuration not stated) 1.85, CC(C1=C(O)CC(C)(C)CC1=O)C1C(=O)CC(C)(C)CC1=O (configuration not stated) 1.39, Nc1nc(Cl)cc(Oc2ccc(Cl)cc2)n1 0.924, Nc1ccc2c(c1)COC2=O 1.34, Nc1nc(N)c(-c2c(-c3ccc(Cl)s3)[nH]c3nc(N)[nH]c(=O)c23)c(=O)[nH]1 1.08, CC1Oc2cc([N+](=O)[O-])cc3c2C1=Cc1ccccc1O3 (configuration not stated) 0.766, O=S(=O)(c1ccc2c(c1)Cc1cc(S(=O)(=O)N3CCOCC3)ccc1-2)N1CCOCC1 1.21, O=S(=O)([O-])CCc1cc[n+](CC[n+]2ccccc2)cc1.[Br-] 1.38, COc1ccc2[nH]c3c(c2c1)CNCC3 1.07, CCOC(=O)CSc1nc(=O)c(NCC(=O)OC)n[nH]1 1.2, Cc1ccc[n+](CC[n+]2ccc(CCS(=O)(=O)[O-])cc2)c1.[Br-] 1.66, c1ccc(COc2ccc(C3Oc4ccccc4C4CC(c5ccccc5)=NN43)cc2)cc1 (configuration not stated) 0.855, c1ccc(-c2nc3ccccc3o2)cc1 1.04, C=CCC(=O)c1sc(NC)c(C#N)c1N 1.21, CCCc1[nH]nc2c1C1(CCSCC1)C(C#N)=C(N)O2 1.16
